PubChem BioAssay AID1224830 – NIAID | 2016

Aim: 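Genes whose knock-down alters the TNF-alpha reporter response to LPS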 (primary screen)
Cells: human THP-1 monocytic leukaemia cells, TNF dual-luciferase reporter clone, PMA-differentiated to macrophage-like cells
Reagent: siRNA pool against human genes, 50 nM
Time to read-out: LPS for 4 h, given about 3 days after siRNA transfection
Treatment: bacterial LPS (TLR4 ligand), 10 ng/ml
Measurement: 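TNF firefly reporter luminescence divided by renilla, normalised to the plate median, then turned into a robust z-score for each replicate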
Scale: TNF reporter robust z-score: higher = stronger TNF reporter response to LPS
Call rule: 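Each well counts as active if its z-score is over 2.8 or under -1.5; controls are left without a call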
This is one part, drawn at random, of about 18,000 deposited reagents. About 2,900 of them (16%) count as active. 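Calls are made per well; low scores hint the gene aids the LPS response, high scores that it dampens it.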 Entries without a mark were called inactive. Repeated entries: four replicate wells of each siRNA pool. Reagent sequences are not shown.

Gene	TNF reporter robust z-score
MKRN2 (GeneID 23609)	0.87
MKRN2 (GeneID 23609)	-0.26
MKRN2 (GeneID 23609)	0.26
MKRN2 (GeneID 23609)	2.08
CABP1 (GeneID 9478)	0.6
CABP1 (GeneID 9478)	-0.37
CABP1 (GeneID 9478)	0
CABP1 (GeneID 9478)	2.04
POMK (GeneID 84197)	-1.48
POMK (GeneID 84197)	-1.75 (active)
POMK (GeneID 84197)	0.46
POMK (GeneID 84197)	0.69
USP51 (GeneID 158880)	1.16
USP51 (GeneID 158880)	1.26
USP51 (GeneID 158880)	1.48
USP51 (GeneID 158880)	1.73
GPR63 (GeneID 81491)	-1.01
GPR63 (GeneID 81491)	-0.26
GPR63 (GeneID 81491)	-0.87
GPR63 (GeneID 81491)	0.29
ARID1A (GeneID 8289)	-0.42
ARID1A (GeneID 8289)	-0.7
ARID1A (GeneID 8289)	-0.81
ARID1A (GeneID 8289)	-0.92
NDUFS6 (GeneID 4726)	1.09
NDUFS6 (GeneID 4726)	0.01
NDUFS6 (GeneID 4726)	0.14
NDUFS6 (GeneID 4726)	0.35
GOLGA8F (GeneID 100132565)	-0.15
GOLGA8F (GeneID 100132565)	1.34
GOLGA8F (GeneID 100132565)	-0.3
GOLGA8F (GeneID 100132565)	0.63
TMEM200B (GeneID 399474)	-1.33
TMEM200B (GeneID 399474)	-2.05 (active)
TMEM200B (GeneID 399474)	-2 (active)
TMEM200B (GeneID 399474)	-1.18
PDGFC (GeneID 56034)	0.63
PDGFC (GeneID 56034)	0.25
PDGFC (GeneID 56034)	-0.08
PDGFC (GeneID 56034)	0.24
CIMIP5 (GeneID 130813)	-0.89
CIMIP5 (GeneID 130813)	-1.08
CIMIP5 (GeneID 130813)	-0.67
CIMIP5 (GeneID 130813)	-1.34
TTF2 (GeneID 8458)	-0.03
TTF2 (GeneID 8458)	-0.15
TTF2 (GeneID 8458)	0.46
TTF2 (GeneID 8458)	1.63
